Experimental data from the odorant receptor screen of Mainland et al. (2015).
Where “and” joins values, the source holds several entries; their conditions need not be identical. Identical values can stand only once. This is one part of the list. Single wells; the ratio to wells without odorant was worked out here, and repeats agree poorly.

Columns and labels:
Assay in all cases: odorant receptor activation (CRE luciferase / Renilla) (fold of no-odor wells); higher = more activation
Conditions in all cases: 100 µM
OR10A5 clone 1723 = test system: OR10A5 clone 1723
[1] = test system: OR10A2 H43R/H207R/K258T clone 1498
OR10A2 clone 1171 = test system: OR10A2 clone 1171
OR10A3 clone 1416 = test system: OR10A3 clone 1416
OR10A4 R262Q clone 1538 = test system: OR10A4 R262Q clone 1538
OR10A6 clone 1219 = test system: OR10A6 clone 1219
OR10A7 clone 1252 = test system: OR10A7 clone 1252
[2] = test system: OR10AD1 R166Q/S177N/W198R clone 1524
OR10AG1 clone 1251 = test system: OR10AG1 clone 1251
[3] = test system: OR10C1 F60L/P174Q/M246V clone 1366

Compound	odorant receptor activation (OR10A5 clone 1723)	odorant receptor activation [1]	odorant receptor activation (OR10A2 clone 1171)	odorant receptor activation (OR10A3 clone 1416)	odorant receptor activation (OR10A4 R262Q clone 1538)	odorant receptor activation (OR10A6 clone 1219)	odorant receptor activation (OR10A7 clone 1252)	odorant receptor activation [2]	odorant receptor activation (OR10AG1 clone 1251)	odorant receptor activation [3]
CC(C)(O)CCCC1=CCC(C=O)CC1 (centres undefined) [lyral]	1.29									
O=C1CCCCCCCCCCCC(=O)OCCO1 [ethylene brassylate]	0.933	1.58	1.85	1.92	1.58	1.89	1.46	1.39	1.61	1.97
CC(C)(C)c1ccc(CCC=O)cc1 [bourgeonal]		0.844	0.728	0.136	0.907	0.678	0.802	0.923	0.844	0.161
CC=Cc1ccc(O)c(OC)c1 [isoeugenol]	3.77	0.962 and 2.56	1.21	1.8	1.26 and 2.64	1.85	1.38 and 1.09	1.81 and 2.04	1.1 and 2.08	1.6
O=C1CCCCC1 [Cyclohexanone]		0.473 and 0.974	0.93	0.774		1.15	0.272	1.24 and 1.02	0.578	0.665
COc1ccccc1O [guaiacol]	0.785		0.9	0.881	0.741 and 1.23	1.02	1.19 and 0.998	0.835 and 1.18	0.734 and 1.19	0.891
COC(=O)c1ccccc1 [methyl benzoate]		0.491 and 1.05	1.13	0.758		0.82	0.28	1.11 and 0.853	1.55	0.675
CC(=O)OCC=C(C)CCC=C(C)C [geranyl acetate]	1.03		1.05	1.19	0.818 and 1.92	1.72	1.16 and 1.13	1.22 and 1.39	0.788 and 1.22	1.27
CC(=O)c1ccccc1 [acetophenone]		0.796 and 1.01	1.26	0.941		1.21	0.851	1.05 and 0.614	2.82	0.84
CCCCCC(=O)O [caproic acid]	0.435	0.907	1.17	0.137	0.888	1.1	0.99	1.04	0.926	0.155
CC(=O)OC(C)(C)C1CC=C(C)CC1 (centres undefined) [terpinyl acetate]	1.36	1	1.1	0.851	1.48	1.39	0.802	0.964	0.961	0.837
CC1COCc2cc3c(cc21)C(C)(C)C(C)C3(C)C (centres undefined) [galaxolide]	0.334 and 0.487		0.725	3.19	4.67 and 4.51	3.16		7.06 and 5.47	1.44 and 3.44	4.64
CC(=O)OC1CC2CCC1(C)C2(C)C (centres undefined) [isobornyl acetate]	1.04	0.516 and 1.23	1.23	0.851	0.728 and 1.25	0.935	0.812 and 1.09	1.02 and 0.935	1.15 and 0.847	0.808
CC(=O)C(C)=O [diacetyl]	0.648	1.58	1.08	1.21	1.31	1.38	1.25	1.27	1.34	0.937
CC12C=CCC1C1CCC3CC(=O)CCC3(C)C1CC2 (centres undefined) [androstenone]		0.834	4.98	1.13	1.1	5.71	1.38	1.08	1.4	1.48
CCC1(O)C2(C)CCC(C2)C1(C)C (centres undefined) [2-ethylfenchol]	0.983	1.01	0.915	0.779	1.11	0.613	1.07	1.23	1.58	0.614
CCCCCOC(C)=O [n-amyl acetate]	1.37	0.556 and 0.972	0.682	0.734		0.528	0.251	1.1 and 0.819	0.927	0.744
CC12C=CCC1C1CCC3=CC(=O)CCC3(C)C1CC2 (centres undefined) [androstadienone]		0.433 and 1.29	1.02	0.942	0.785 and 1.44	1.17	1.11 and 1.1	1.09 and 1.18	0.982 and 1.01	0.983
CC1=NC(C)SC1C (centres undefined)		1.06 and 1	1.25	1.08		1.35	0.595	1.02 and 0.862	2.08	0.868
C=C(C)C1CCC2=CC(=O)CC(C)C2(C)C1 (centres undefined) [amyl laurate]	1.49									
O=CCc1ccccc1 [phenyl acetaldehyde]	2.04	1.27	0.969	1.37	1.34	1.05	1.14	1.12	1.54	1.5
CCCCCCOC(=O)CCC [hexyl butyrate]	0.941	0.343 and 0.836	1.23	0.805	1.02 and 1.19	0.884	0.72 and 0.882	0.935 and 0.912	0.71 and 0.796	0.833
CCCCCC(C)=O [2-heptanone]		1.18 and 0.836	1.12	1.14		1.13	0.578	1.02 and 0.624	2.98	0.904
CCCCCCCOC(C)=O [heptyl acetate]	0.826		0.863	1.29	0.712 and 1.48	1.05	0.879 and 0.959	0.718 and 1.22	1.43 and 1.31	1.02
COc1cc(C=O)ccc1O [vanillin]	0.344	0.835	0.966	0.977	1.2	0.954	1.05	1.05	1.05	0.88
C=CCc1ccc(OC(C)=O)c(OC)c1 [eugenol acetate]	2.03	1.81	1.53	1.71	1.62	2.01	1.85	1.84	1.68	1.39
C=CCc1ccc(OC)c(OC)c1 [eugenol methyl ether]	0.965	1.24	1.38	1.9	1.65	1.67	1.36	1.31	1.27	1.14
C=C(C)C1CC=CCC1 (centres undefined) [r-limonene]	1.15	1.02 and 0.588 and 1.15	1.07 and 0.544	1.28 and 0.775	1.28	1.07 and 0.584		0.909 and 1.23 and 0.714	0.875 and 0.445	1.11 and 0.946
CCCCCCC=O [heptaldehyde]	0.946		0.554 and 0.776	0.995 and 1.04	0.598 and 1.26	0.46 and 0.991			0.617 and 0.673 and 0.937	0.945 and 0.949
